The values below come from publication PMC7530392, “A label‐free impedance assay in endothelial cells differentiates the activation and desensitization properties of clinical S1P1 agonists” (FEBS Open Bio, 2020).

Chains of the proteins cited; added tags and fusions are not shown.
UniProt P21453, whole entry: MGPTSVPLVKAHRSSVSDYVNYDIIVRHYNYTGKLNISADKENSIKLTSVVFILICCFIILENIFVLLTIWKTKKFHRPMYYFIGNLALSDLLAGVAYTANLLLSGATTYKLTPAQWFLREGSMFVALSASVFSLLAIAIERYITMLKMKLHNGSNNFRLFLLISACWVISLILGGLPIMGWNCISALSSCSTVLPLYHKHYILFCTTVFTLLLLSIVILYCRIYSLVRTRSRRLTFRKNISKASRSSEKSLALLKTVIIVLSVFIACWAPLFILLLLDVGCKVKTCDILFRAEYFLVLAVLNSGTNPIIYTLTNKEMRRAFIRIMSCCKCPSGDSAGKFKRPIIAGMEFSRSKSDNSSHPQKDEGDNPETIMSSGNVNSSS

For this assay, the target named is S1P1 (Homo sapiens, UniProt P21453). Nature of the assay: Desensitization of S1P-induced BNCI response in HUVEC (second stimulation with 80 nM S1P). It counts as cell-based. As to conditions: desensitization IC50 / early phase EC50, geometric mean.

Not every entry of the source has a single result; some have several. The list is limited to them. The source may hold further records. Results that share an entry read as repeated measurements on other runs, samples or individuals; a mean can stand among them.

Turning to `Cc1cc(-c2nc3cnc(Oc4cccc(Cl)c4)nc3o2)cc(C)c1OCC(=O)O` [SAR247799], the “Activation-to-desensitization ratio [95% CI]” value was 114 (91.1–143) and 114 [91.1–143] and 114.
